PubChem BioAssay AID1224826 | NIAID | 2016
Shown is one part, drawn at random, of about 17,000 reagents tested. About 1,110 of all reagents (6.6%) count as active. 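Active means lowered or raised reporter signal; replicate intensities are raw and not normalised per plate.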 Further read-outs or replicates are left out here.

Purpose: 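Genes that change LPS-induced Tnf promoter activity in mouse macrophages when knocked down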 (primary screen)
System: RAW264.7 G9 macrophages from mouse bearing reporters for p65 (GFP) and the Tnf promoter (mCherry)
Reagent: siRNA pool against mouse genes, 100 nM
Time to read-out: 16 h of LPS stimulation, after 2 days of siRNA transfection
Treatment: bacterial lipopolysaccharide (Salmonella minnesota R595), 10 ng/ml
Measurement: 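Nuclear mCherry signal of the Tnf promoter reporter measured by imaging after background removal, scaled to each plate median and turned into robust z-scores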
Direction: Tnf reporter robust z-score: higher = stronger Tnf promoter reporter signal after LPS
Active means: 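a well counts as active at a score of -1.3 or below (Tlr4 knock-down control median) or above 3 (raised signal); controls and wells holding fewer than 50 cells are excluded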
Calls: active = Tnf reporter clearly lowered or raised; inactive = no clear change in Tnf reporter

Tfap2d gave Tnf reporter robust z-score -0.25; fewer than 50 cells in well enough cells in well; inactive.
Silencing of Fscn2 came out at: Tnf reporter robust z-score -1.06; fewer than 50 cells in well enough cells in well; inactive.
Against Rgcc, the entry reads Tnf reporter robust z-score 0.14; fewer than 50 cells in well enough cells in well; inactive.
For Msantd4, the values are Tnf reporter robust z-score 0.7; fewer than 50 cells in well enough cells in well; inactive.
With knock-down of Rpe65, the record shows Tnf reporter robust z-score -0.83; fewer than 50 cells in well enough cells in well; inactive.
For Kat2b the deposit lists Tnf reporter robust z-score -0.49; fewer than 50 cells in well enough cells in well; inactive.
With knock-down of Zfp354c, the screen gave Tnf reporter robust z-score 3.07; fewer than 50 cells in well enough cells in well; active.
After knock-down of Tafa1, the record shows Tnf reporter robust z-score 2.02; fewer than 50 cells in well enough cells in well; inactive.
With knock-down of Hba-x, the record shows Tnf reporter robust z-score 2.06; fewer than 50 cells in well enough cells in well; inactive.
Khk showed Tnf reporter robust z-score 0.42; fewer than 50 cells in well enough cells in well; inactive.
Silencing of Cers1 resulted in: Tnf reporter robust z-score -0.7; fewer than 50 cells in well enough cells in well; inactive.
Silencing of Tle5 resulted in: Tnf reporter robust z-score -1; fewer than 50 cells in well enough cells in well; inactive.
Silencing of Krt1 gave: Tnf reporter robust z-score -0.92; fewer than 50 cells in well enough cells in well; inactive.
Tssk2 showed Tnf reporter robust z-score 1.22; fewer than 50 cells in well enough cells in well; inactive.
For Pxn, the values are Tnf reporter robust z-score 0.21; fewer than 50 cells in well enough cells in well; inactive.
Silencing of Spinkl came out at: Tnf reporter robust z-score 2.17; fewer than 50 cells in well enough cells in well; inactive.
Against Ptges3l the deposit lists fewer than 50 cells in well fewer than 50 cells per well; well left out of calls; inactive.
P2ry10 gave Tnf reporter robust z-score -1.66; fewer than 50 cells in well enough cells in well; active.
Knock-down of Ulk2 came out at: Tnf reporter robust z-score -0.73; fewer than 50 cells in well enough cells in well; inactive.
Against Fetub, the entry reads Tnf reporter robust z-score -0.99; fewer than 50 cells in well enough cells in well; inactive.
Knock-down of Josd2 came out at: Tnf reporter robust z-score 2.48; fewer than 50 cells in well enough cells in well; inactive.

Entries above whose target name starts with K or k:
Kat2b: Tnf reporter robust z-score = -0.49; fewer than 50 cells in well = enough cells in well; outcome = inactive
Khk: Tnf reporter robust z-score = 0.42; fewer than 50 cells in well = enough cells in well; outcome = inactive
Krt1: Tnf reporter robust z-score = -0.92; fewer than 50 cells in well = enough cells in well; outcome = inactive
